From article PMC11222469
No constants are given. Whether binding was seen depends on the method and setting. Binding seen in cells or lysates may run through a third protein. Some results given as binding are weak or reduced against the parent protein; the word gives no strength. Tags and fused reporters may be left off the sequences shown.

Target: FLAG-tagged DCAF15 (DDB1- and Cul4-Associated Factor 15) (human) (UniProt Q66K64)
Assay: co-IP; FLAG-immunoprecipitation from HEK293T cells transiently transfected with FLAG-DCAF15, HA-SMC1A, HA-PDS5A and HA-CDCA5, before an in vitro ubiquitination assay; Western blot

B1: HA-PDS5A (protein, UniProt Q29RF7 1-1337)
chain: MDFTAQPKPATALCGVVSADGKIAYPPGVKEITDKITTDEMIKRLKMVVKTFMDMDQDSEDEKQQYLPLALHLASEFFLRNPNKDVRLLVACCLADIFRIYAPEAPYTSHDKLKDIFLFITRQLKGLEDTKSPQFNRYFYLLENLAWVKSYNICFELEDCNEIFIQLFRTLFSVINNSHNKKVQMHMLDLMSSIIMEGDGVTQELLDSILINLIPAHKNLNKQSFDLAKVLLKRTVQTIEACIANFFNQVLVLGRSSVSDLSEHVFDLIQELFAIDPHLLLSVMPQLEFKLKSNDGEERLAVVRLLAKLFGSKDSDLATQNRPLWQCFLGRFNDIHVPVRLESVKFASHCLMNHPDLAKDLTEYLKVRSHDPEEAIRHDVIVTIITAAKRDLALVNDQLLGFVRERTLDKRWRVRKEAMMGLAQLYKKYCLHGEAGKEAAEKVSWIKDKLLHIYYQNSIDDKLLVEKIFAQYLVPHNLETEERMKCLYYLYASLDPNAVKALNEMWKCQNMLRSHVRELLDLHKQPTSEANCSAMFGKLMTIAKNLPDPGKAQDFVKKFNQVLGDDEKLRSQLELLISPTCSCKQADICVREIARKLANPKQPTNPFLEMVKFLLERIAPVHIDSEAISALVKLMNKSIEGTADDEEEGVSPDTAIRSGLELLKVLSFTHPTSFHSAETYESLLQCLRMEDDKVAEAAIQIFRNTGHKIETDLPQIRSTLIPILHQKAKRGTPHQAKQAVHCIHAIFTNKEVQLAQIFEPLSRSLNADVPEQLITPLVSLGHISMLAPDQFASPMKSVVANFIVKDLLMNDRSTGEKNGKLWSPDEEVSPEVLAKVQAIKLLVRWLLGMKNNQSKSANSTLRLLSAMLVSEGDLTEQKRISKSDMSRLRLAAGSAIMKLAQEPCYHEIITPEQFQLCALVINDECYQVRQIFAQKLHKALVKLLLPLEYMAIFALCAKDPVKERRAHARQCLLKNISIRREYIKQNPMATEKLLSLLPEYVVPYMIHLLAHDPDFTRSQDVDQLRDIKECLWFMLEVLMTKNENNSHAFMKKMAENIKLTRDAQSPDESKTNEKLYTVCDVALCVINSKSALCNADSPKDPVLPMKFFTQPEKDFCNDKSYISEETRVLLLTGKPKPAGVLGAVNKPLSATGRKPYVRSTGTETGSNINVNSELNPSTGNRSREQSSEAAETGVSENEENPVRIISVTPVKNIDPVKNKEINSDQATQGNISSDRGKKRTVTAAGAENIQQKTDEKVDESGPPAPSKPRRGRRPKSESQGNATKNDDLNKPINKGRKRAAVGQESPGGLEAGNAKAPKLQDLAKKAAPAERQIDLQR
- binding: binds
